Laboratory results published in PubChem BioAssay AID1347076 (National Center for Advancing Translational Sciences (NCATS), 2019).
The campaign covered roughly 400,000 compounds. About 13,000 (3.2%) were called active. This list was built around the results that the source calls inconclusive (neither active nor inactive); the mix of calls is not that of the screen. Calls follow the shape of the dose curve; as a rule, active = well fitted cell-killing curve with a large enough effect; inconclusive = small, poorly fitted or top-dose-only effect, or effect the other way; inactive = flat fitted curve, though single readings scatter. Potencies of inconclusive entries are doubtful fits and often do not repeat.

Assay: qHTS assay for MDR1-selective chemotherapeutics: Primary screen using the drug-selected MDR subline cells KB-V1; also: nearly all actives have a fitted effect of over 60% in size
Conditions: KB-V1 MDR cells viability, CellTiter-Glo, 72 h; activity change, negative = cytotoxicity: at 46.1 µM (top of the series)
Summary of the method: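 Readout: CellTiter-Glo luminescence, 10 min after addition. Cells: KB-V1 MDR subline, 72 h at 37 degrees C with compound. Analysis: corrected, normalized data fitted to concentration-effect curves.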
% is scaled to controls: 0 for no effect and ±100 for the full control effect; potency is read from the fitted curve at half-maximal effect.

SMILES | Potency | activity change, negative = cytotoxicity
COc1cccc2c1C(=O)C[C@]1(CCCC[C@@H]1C)O2 | inconclusive: 14.6 µM [rising, partial curve] | 
Cc1cccc(NC(=S)NNC(=O)c2cc3c(s2)CCC(C)C3)c1C (centres undefined) | inconclusive: 6.51 µM [cytotoxic, partial curve, poor fit] | 
O=C(c1ccc(N2CCCC2=O)cc1)N1CCN(c2ccccc2Cl)CC1 | inconclusive: 18.4 µM [cytotoxic, single point] | 
CC(=O)c1ccc(N2CCN(C(=O)C3CCCN(c4ncnc5c4nc4n5CCCCC4)C3)CC2)cc1 (centres undefined) | inactive | 
CCC(Sc1nc2cc(OC)c(OC)cc2c(=O)n1CCc1ccc(OC)c(OC)c1)C(=O)NCCOC (centres undefined) | inconclusive: 2.59 µM [cytotoxic, full curve, poor fit] | 
COc1ccc2nc(N3C(=O)/C(=C/c4ccccc4)NC3=S)sc2c1 | inconclusive: 29.1 µM [cytotoxic, single point] | 
O=C(CSc1nncs1)Nc1cccc2ccccc12 | inactive | 
CCOC(=O)CSc1nnc(-c2ccccc2)o1 | inconclusive: 29.1 µM [rising, single point] | 
Nc1nc(CSc2ccc(Cl)cc2)nc(N2CCCCC2)n1 | inconclusive: 18.4 µM [cytotoxic, partial curve, poor fit] | 
O=c1c2cc(C(F)(F)F)ccc2sn1-c1ccccc1 | active: 20.6 µM | 
COc1ccc2c(c1)C(=O)N1[C@H]3c4cc(C)ccc4OC[C@@H]3[C@H](c3ccccc3)[C@]1(C)C(=O)N2 | inconclusive: 20.6 µM [cytotoxic, single point] | 
Cc1c(/C=N\NC(=O)c2cc3ccccc3o2)c2ccccc2n1C | inconclusive: 16.4 µM [cytotoxic, partial curve] | 
CCCCCCCNC(=O)C1CC(=O)N(C)C(=Nc2ccc(OC)cc2)S1 (centres undefined) | inconclusive: 23.1 µM [cytotoxic, single point] | 
Cc1ccccc1NC(=O)CCN1CCc2ccccc2C1 | inconclusive: 7.31 µM [cytotoxic, partial curve] | 
CC(C)N(C(=O)[C@H]1C[C@H](CC(=O)NCCC2=CCCCC2)C(=O)N2CCc3c([nH]c4ccc(Cl)cc34)[C@]12C)C(C)C | inconclusive: 29.1 µM [cytotoxic, single point] | 
CC(C)c1ccc(NC2CCCN(C(=O)c3ccccc3-c3ncc[nH]3)C2)cc1 (centres undefined) | inactive | 
CCNC(=O)c1c2c(nc3ccccc13)C(=O)N(C1CCCCC1)C2 | inactive | 
CCC(CO)Oc1cc(NC(=O)c2cccc(C)c2)c2ncn(C(C)C)c2c1 (centres undefined) | inconclusive: 25.9 µM [cytotoxic, single point] | 
O=C(CCc1nnc(-c2ccc(-c3ccccc3)cc2)o1)N1CCCCC1 | inactive | 
Cc1cc(C)cc(Nc2c3c(nc4ncnn24)CCC3)c1 | active: 2.06 µM | 
O=C(c1ccccc1)N1CCN(C(=S)NCCc2ccccc2)CC1 | inconclusive: 2.91 µM [cytotoxic, partial curve, poor fit] | 
C=CCSc1nnc(NC(=O)C23CC4CC(CC(NC(C)=O)(C4)C2)C3)s1 | inactive | 

In the list so far, these have an NH in an aromatic ring.
SMILES | Potency | activity change, negative = cytotoxicity
CC(C)N(C(=O)[C@H]1C[C@H](CC(=O)NCCC2=CCCCC2)C(=O)N2CCc3c([nH]c4ccc(Cl)cc34)[C@]12C)C(C)C | inconclusive: 29.1 µM [cytotoxic, single point] | 
CC(C)c1ccc(NC2CCCN(C(=O)c3ccccc3-c3ncc[nH]3)C2)cc1 (centres undefined) | inactive | 

Continuation.

SMILES | Potency | activity change, negative = cytotoxicity
COC(=O)c1sc2nc3c(c(-c4cccs4)c2c1N)CCCC3 | inconclusive: 32.6 µM [cytotoxic, single point] | 
c1csc(-c2nnc(Cc3cccc4ccccc34)o2)c1 | active: 14.6 µM | 
Nc1nc(SCc2cccc([N+](=O)[O-])c2)n[nH]1 | inconclusive: 18.4 µM [rising, single point] | 
O=C(Nc1ccc(F)cc1)Nc1ccc2snnc2c1 |  | inconclusive: -19.8%
CCc1cccc(NC(=O)CN(c2ccc(C)cc2)S(=O)(=O)c2cccs2)c1 | inconclusive: 18.4 µM [cytotoxic, single point] | 
O=C(NCc1cccnc1)/C(=C\c1ccc(-c2ccc(Br)cc2)o1)S(=O)(=O)c1ccccc1 | active: 7.31 µM | 
COc1ccc(/C=C/C(=O)OCC(=O)c2ccc[nH]2)cc1 | inconclusive: 29.1 µM [rising, single point] | 
COc1ccccc1OCC(=O)N(Cc1nc(-c2ccccc2)no1)C(C)C | inconclusive: 8.2 µM [cytotoxic, partial curve] | 
Cc1cccc(NC(=O)c2ccc(OCc3c(C)noc3C)cc2)n1 | inconclusive: 4.61 µM [cytotoxic, single point] | 
CCCNC(=O)CNC(=S)N(Cc1ccccc1F)C1CCCCC1 | inconclusive: 10.3 µM [cytotoxic, partial curve] | 
O=C(C[C@H]1C/C=C\C[C@@H](Cc2ccc(F)cc2)C(=O)O[C@@H](c2ccccc2)CNC1=O)NCCO | inconclusive: 29.1 µM [rising, single point] | 
Nc1nc2ccccc2n1CCOc1ccc(F)cc1 | inconclusive: 29.1 µM [cytotoxic, single point] | 
O=C(CN1CCN(c2ccccn2)CC1)N1c2ccccc2Sc2ccc(C(F)(F)F)cc21 | inconclusive: 22.4 µM [cytotoxic, single point] | 
COc1cccc(C(O)c2nc(/C=C/c3ccccc3)cs2)c1 (centres undefined) | inactive | 
CCOc1ccc(NC(=O)C(=O)NCCc2ccccc2)cc1 | inconclusive: 23.1 µM [rising, partial curve, poor fit] | 
CC(Sc1nc(N)cc(=O)[nH]1)C(=O)NNC(=O)c1cccc(Cl)c1 (centres undefined) | inconclusive: 29.1 µM [rising, single point] | 
COCCCN(C(=S)Nc1cc(C)cc(C)c1)C(C)c1ccncc1 (centres undefined) | inconclusive: 8.2 µM [cytotoxic, partial curve] | 
CSc1nc2ncc(-c3ccsc3)c(N)n2n1 | inactive | 
COc1ccccc1NC(=O)Nc1ccc(C(=O)N2CCCCC2)cc1 | inconclusive: 20.6 µM [cytotoxic, single point] | 
CC(C)(C)n1nnnc1C(c1cccs1)N(Cc1ccccc1)Cc1ccco1 (centres undefined) | inactive | 
Cc1ccccc1-c1cc(C(=O)NCc2ccco2)n(CC2CC(c3cccnc3)=NO2)n1 (centres undefined) | inactive | 
COc1c(C)cc(Br)cc1C(=O)Nc1cccc(-c2nc3ncccc3o2)c1 | inconclusive: 29.1 µM [cytotoxic, single point] | 
